From article PMC4311431 come the findings set out here.

The target in assay [1] is T1, 6His-tagged SUMO-SA2.
T1 sequence: AAVVLLLWEE
The experiment in a line: SEC; purified and desalted SUMO-SA2 before cleavage; Superdex Peptide 10/300 GL, 0.7 ml/min, phosphate buffered saline; peaks checked by SDS-PAGE; both purified. Background: In gel filtration, larger molecules generally elute earlier.

Assay [2] deals with T1, 6His-tagged SUMO-SA2. The assay can be described thus: SEC; SUMO-SA2 after cleavage with SUMO protease; void-volume peak collected and re-injected; Superdex Peptide 10/300 GL, 0.7 ml/min, phosphate buffered saline pH 7.4 (at pH 11.5 the major part of the aggregates dissolved); both purified.

No constants are given. Whether binding was seen depends on the method and setting. Some binding calls cover weakened binding; strength is not graded here. Tags and fused reporters may be left off the sequences shown.

As for AAVVLLLWEE [6His-tagged SUMO-SA2], the binding result in the assay with 6His-tagged SUMO-SA2 [1] is “binds”.

As to AAVVLLLWEE [SA2 peptide], in the assay with 6His-tagged SUMO-SA2 [2], the binding entry is “binds”.
